# Where two headings read alike, the source gives them in different places. Results are given in words; binding and its absence hold for the method and conditions named. For some of these results: In cells and extracts the contact can be indirect. Some entries that bind do so weakly or less than the wild type. For some of these results: Sequences can lack the tags named with a protein.
# Protein sequences, listed by entry. Tags and fused reporters are not part of them.
# UniProt Q86TI2: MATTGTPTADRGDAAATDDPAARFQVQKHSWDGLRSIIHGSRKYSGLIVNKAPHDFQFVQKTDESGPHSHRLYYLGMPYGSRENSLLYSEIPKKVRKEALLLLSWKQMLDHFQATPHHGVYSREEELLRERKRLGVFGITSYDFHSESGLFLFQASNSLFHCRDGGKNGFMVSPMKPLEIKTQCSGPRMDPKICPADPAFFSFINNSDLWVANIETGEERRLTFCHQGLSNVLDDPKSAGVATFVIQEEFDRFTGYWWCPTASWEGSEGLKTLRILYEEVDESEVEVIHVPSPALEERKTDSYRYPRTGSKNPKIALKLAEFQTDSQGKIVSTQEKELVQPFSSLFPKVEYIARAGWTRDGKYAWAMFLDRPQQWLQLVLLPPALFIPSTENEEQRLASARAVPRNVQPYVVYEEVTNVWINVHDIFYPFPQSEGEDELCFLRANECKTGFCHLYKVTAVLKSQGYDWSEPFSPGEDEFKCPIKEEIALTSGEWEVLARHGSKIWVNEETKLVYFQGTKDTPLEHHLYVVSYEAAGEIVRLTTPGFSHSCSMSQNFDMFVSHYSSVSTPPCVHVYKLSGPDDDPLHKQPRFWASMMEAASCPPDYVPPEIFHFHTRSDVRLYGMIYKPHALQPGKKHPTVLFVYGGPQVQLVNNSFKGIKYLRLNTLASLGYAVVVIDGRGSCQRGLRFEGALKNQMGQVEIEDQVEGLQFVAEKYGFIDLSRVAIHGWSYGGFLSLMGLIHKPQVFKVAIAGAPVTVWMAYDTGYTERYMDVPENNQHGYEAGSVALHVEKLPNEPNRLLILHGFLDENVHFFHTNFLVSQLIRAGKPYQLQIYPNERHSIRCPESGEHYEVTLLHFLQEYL
# T1: BRCA2_(1-40)HA-His (recombinant N-terminal BRCA2 fragment with a C-terminal HA tag) (human) (UniProt P51587)
# T1 sequence: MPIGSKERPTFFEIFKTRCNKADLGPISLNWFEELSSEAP
# How the values were obtained:
# [1] = target: T1, BRCA2_(1-40)HA-His (recombinant N-terminal BRCA2 fragment with a C-terminal HA tag) (human); experiment: pull-down
# [2] = target: Endogenous BRCA2 in HeLa cells (human (endogenous in HeLa)) (UniProt P51587); experiment: proximity ligation
# [3] = target: Endogenous BRCA2 in HeLa cells (human (endogenous in HeLa)) (UniProt P51587); experiment: proximity ligation; remark: listed apart in the source
# [4] = target: Human recombinant DPP9 (dipeptidyl peptidase 9), His-tagged (human) (UniProt Q86TI2); experiment: pull-down
molecule,measurement,setting,value
"Human recombinant DPP9 (dipeptidyl peptidase 9), His-tagged (from UniProt Q86TI2 1-863) (enzyme)",binding,[1],binds
Endogenous DPP9 in HeLa cells (from UniProt Q86TI2 1-863) (enzyme),binding,[2],binds
same,binding,[3],no binding (condition: with 10 µM 1G244)
SLRFLYEG [SLRFLYEG peptide (competitive DPP9 inhibitor)],binding,[4],binds
